The assay relates to SARS-CoV-2. Briefly: microbe, parasite or virus in culture. It counts as cell-based. The note with it: Severe acute respiratory syndrome coronavirus 2, 120 h.

The text below walks through data of patent EP4000606A1, “COMPOUNDS FOR CORONAVIRUS INFECTION TREATMENT AND/OR PREVENTION” (priority 2020, dated 2022).

Regarding `CCN(CC)CCOc1ccc(C(=C(Cl)c2ccccc2)c2ccccc2)cc1.O=C(O)CC(O)(CC(=O)O)C(=O)O` [compound 82, 2-[4-(2-Chloro-1,2-diphenylvinyl)phenoxy]-N,N-diethylethanamine citrate], the IC50 (in general, the concentration at which inhibition is half-maximal) is 13.6 µM.
